Measured values as given in PubChem BioAssay AID1487 (National Center for Advancing Translational Sciences (NCATS), 2009).
This is one part of the list. Further columns of the screen follow, without active or inactive calls. The list favours compounds with an active or inconclusive main result. The note in brackets gives the kind of curve behind each potency; many fits are weak.

Experiment: qHTS Assay for Modulators of Lamin A Splicing
Details: HeLa LMNA splicing GFP/RFP minigene ratio, 48 h
How it was run: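 S3 HeLa stable clones carrying a lamin A-EGFP splicing minigene plus DsRed2 were seeded at 600 cells/well in Opti-MEM with 2% FBS, pin-dosed and incubated 48 h at 37°C. Acumen cytometry (488 nm) gave the GFP/RFP total-intensity ratio.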

[1] = measured here: RFP viability control channel
[2] = measured here: GFP splicing reporter channel

SMILES	AC50 [1]	AC50 [2]
COc1ccc(-c2nnc(NC(=O)c3ccc(S(=O)(=O)N4COCC4(C)C)cc3)o2)cc1	5.01 µM [rising, partial curve]	
O=C(C1CCCN(S(=O)(=O)c2ccccc2)C1)N1CCCc2ccccc21 (stereo not given)	10 µM [rising, partial curve]	
O=C1CCC(c2ccccc2)=NN1Cc1c(F)cccc1Cl		35.5 µM [falling, single point]
Oc1ccc(CN2CCc3ccccc3C2)c2cccnc12	10 µM [rising, partial curve]	
Cc1ccc(-c2[nH]c3ccccc3c2SCCNC(=O)c2ccc(S(=O)(=O)N3CCOCC3)cc2)cc1	11.2 µM [rising, partial curve]	6.31 µM [rising, partial curve]
CC(NC(=O)C(=O)NN=C1CCCC1)c1ccccc1 (stereo not given)	0.631 µM [falling, partial curve]	
COc1ccc(C(=O)Nc2ccccc2-c2ccccc2)cc1Cl	31.6 µM [rising, single point]	
COc1ccccc1C1C2=C(N=c3s/c(=C/c4cccc(OCC(=O)O)c4)c(=O)n31)c1ccccc1CC2 (stereo not given)	0.1 µM [falling, full curve, poor fit]	
O=C(CCC(=O)c1ccc(Oc2ccccc2)cc1)Nc1cccc(Cl)c1Cl	35.5 µM [rising, single point]	
O=C(c1cn(CC(=O)N2CCCC2)c2ccccc12)C1CCCCC1	20 µM [rising, single point]	
CCOC(=O)C1=C(C)Nc2ccccc2N=C1N	0.0126 µM [falling, full curve, poor fit]	
COc1ccc(F)cc1S(=O)(=O)N1CCN(Cc2ccc3c(c2)OCO3)CC1	12.6 µM [rising, single point]	
CCN1CCN(Cc2nc3cc(NC(=O)c4ccccc4[N+](=O)[O-])ccc3n2CC)CC1		1 µM [falling, full curve, poor fit]
Cc1nn(Cc2ccc(F)cc2)c(Cl)c1/C=N/NC(=O)c1ccccc1		20 µM [rising, single point]
OCCN1CCN(C(=S)Nc2ccc(Oc3ccccc3)cc2)CC1	2.82 µM [falling, partial curve, poor fit]	2.51 µM [falling, single point]
Cc1ccc(C(=O)COC(=O)CNC(=O)CNC(=O)c2ccc(C)cc2)cc1	0.00794 µM [falling, full curve]	
CNc1ncnc2c1ncn2[C@@H]1O[C@H](CO)[C@@H](O)[C@@H]1O	10 µM [falling, single point]	11.2 µM [falling, partial curve, poor fit]
CN(C)S(=O)(=O)c1ccc2c(c1)N(CC(=O)N1CCCCC1)CCS2		0.00316 µM [falling, full curve, poor fit]

SMILES	AC50 [1]	AC50 [2]
Cc1ccc[n+](CC(=O)c2ccc(-c3ccccc3)cc2)c1	0.501 µM [rising, full curve, poor fit]	
O=C(C1CCN(c2ccc(N3CCOCC3)nn2)CC1)N1CCc2ccccc2C1	11.2 µM [rising, partial curve, poor fit]	11.2 µM [rising, partial curve, poor fit]
CC(=O)Nc1ccc(NC(=O)C(Cc2ccccc2)N2Cc3ccccc3C2=O)cc1 (stereo not given)	0.1 µM [falling, partial curve]	0.562 µM [falling, partial curve]
CCN1C(=O)c2cccc3c(NC(=O)C4CCCCC4)ccc1c23	17.8 µM [rising, partial curve, poor fit]	
O=C(CCc1ccccc1)OCCN1CCOCC1		15.8 µM [rising, single point]
NC(=O)c1nsc(C(=O)N(CC(=O)NCc2ccc3c(c2)OCO3)C2CCCC2)c1N		35.5 µM [rising, single point]
CCOc1ccc(S(=O)(=O)NCc2ccccc2)cc1C(N)=O	35.5 µM [rising, single point]	
CC(C)Oc1ccc(CNC(=S)N/N=C/c2cccnc2)cc1	14.1 µM [rising, partial curve]	14.1 µM [rising, partial curve, poor fit]
COC(=O)NNC(=O)COc1cc(C)c(Br)cc1C(C)C	11.2 µM [rising, single point]	14.1 µM [rising, single point]
COCC(C)N1C(=O)Cc2c1nc(N)c1c(N)nc(N3CCN(c4ccccc4F)CC3)c(C#N)c21 (stereo not given)	0.355 µM [falling, full curve]	
CCC1OC(=O)C[C@H](O)C(C)[C@@H](O[C@@H]2OC(C)C(O)C(N(C)C)C2O)C(CCN2CC(C)CC(C)C2)CC(C)C(=O)/C=C/C(C)=C\[C@@H]1COC1OC(C)C(O)C(OC)C1OC (stereo not given in full)	14.1 µM [falling, partial curve, poor fit]	0.0112 µM [falling, full curve, poor fit]
CCOC(=O)CN1CC23C=CC(O2)C(C(=O)Nc2ccc(OC)cc2OC)C3C1=O (stereo not given)		0.0398 µM [falling, partial curve, poor fit]
CCn1ncc(C(=O)Nc2ccccc2C)c1C	8.91 µM [rising, partial curve]	
COc1ccc2c(c1)SCC(=O)N2C	35.5 µM [rising, single point]	
Cc1cccc(NCc2nnc3n2CCCCC3)c1C		0.447 µM [rising, full curve, poor fit]
COc1cccc(CC2(CO)CCCN(Cc3cn[nH]c3-c3cc(C)ccc3C)C2)c1 (stereo not given)	22.4 µM [falling, partial curve, poor fit]	20 µM [falling, partial curve, poor fit]
CN(C(=O)c1ccc2c(c1)N(Cc1ccccc1F)C(=O)c1ccccc1S2)C1CCCCC1	10 µM [rising, partial curve]	
Cc1ccccc1C(=O)NCC(c1cccnc1)N1CCc2ccccc21 (stereo not given)		0.0141 µM [falling, full curve, poor fit]

Entries of single compounds, quoted from the list.
`CC(NC(=O)C(=O)NN=C1CCCC1)c1ccccc1` (stereo not given) as listed: AC50 [1]: 0.631 µM [falling, partial curve]
`Cc1ccc[n+](CC(=O)c2ccc(-c3ccccc3)cc2)c1` as listed: AC50 [1]: 0.501 µM [rising, full curve, poor fit]
